Laboratory results from publication PMC5727187, “Insights into the structure and assembly of a bacterial cellulose secretion system” (Nature Communications, 2017).

Molecular target: T1, BcsG (two-hybrid fusion) (E. coli 1094) (UniProt P37659)
T1 sequence: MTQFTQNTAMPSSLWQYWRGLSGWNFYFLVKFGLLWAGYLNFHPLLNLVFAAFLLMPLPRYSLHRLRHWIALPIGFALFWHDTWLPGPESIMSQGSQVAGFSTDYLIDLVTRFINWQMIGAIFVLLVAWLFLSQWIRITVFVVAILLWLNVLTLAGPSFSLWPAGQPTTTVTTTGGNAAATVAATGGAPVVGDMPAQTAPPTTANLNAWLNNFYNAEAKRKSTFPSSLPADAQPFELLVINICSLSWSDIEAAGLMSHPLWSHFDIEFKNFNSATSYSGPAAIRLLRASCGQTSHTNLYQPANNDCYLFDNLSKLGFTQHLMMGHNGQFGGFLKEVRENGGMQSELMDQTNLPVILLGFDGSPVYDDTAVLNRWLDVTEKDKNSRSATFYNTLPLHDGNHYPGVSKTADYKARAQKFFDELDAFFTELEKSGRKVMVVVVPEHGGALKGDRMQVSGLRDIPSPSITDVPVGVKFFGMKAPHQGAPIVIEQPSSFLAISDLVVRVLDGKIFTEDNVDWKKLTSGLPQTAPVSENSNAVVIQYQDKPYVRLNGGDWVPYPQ
Assay: two-hybrid; Bacterial adenylate cyclase (T25/T18) complementation in E. coli cya BTH101; blue colonies on LB-agar with X-gal and IPTG; more stringent: growth and blue colour on M63B1-agar with 0.4% maltose

binding: binds
Substance: BcsA^NTD (two-hybrid fusion) (E. coli 1094) (domain or fragment)

No constants are given. Whether binding was seen depends on the method and setting. Binding calls can cover weak binding; strength is not graded here. Sequences can lack the tags named with a protein.
